PubChem BioAssay AID489037 (National Center for Advancing Translational Sciences (NCATS), 2010)
Inconclusive means that the source gave no clear call. Such entries were picked first, then a sample of the others. Potencies of inconclusive entries are doubtful fits and often do not repeat. The source made the active and inactive calls. The call rests on the fitted dose curve; in most records, active means well fitted inhibition curve with a large enough effect; inconclusive means small, poorly fitted or top-dose-only effect, or effect the other way; inactive means no such curve, though single readings can be large or run the other way.

By UniProt entry, the sequences of proteins in these tests, tags left out. Where a name states a change or a piece, a line headed by the entry shows the natural chain unless it says otherwise.
UniProt P51450: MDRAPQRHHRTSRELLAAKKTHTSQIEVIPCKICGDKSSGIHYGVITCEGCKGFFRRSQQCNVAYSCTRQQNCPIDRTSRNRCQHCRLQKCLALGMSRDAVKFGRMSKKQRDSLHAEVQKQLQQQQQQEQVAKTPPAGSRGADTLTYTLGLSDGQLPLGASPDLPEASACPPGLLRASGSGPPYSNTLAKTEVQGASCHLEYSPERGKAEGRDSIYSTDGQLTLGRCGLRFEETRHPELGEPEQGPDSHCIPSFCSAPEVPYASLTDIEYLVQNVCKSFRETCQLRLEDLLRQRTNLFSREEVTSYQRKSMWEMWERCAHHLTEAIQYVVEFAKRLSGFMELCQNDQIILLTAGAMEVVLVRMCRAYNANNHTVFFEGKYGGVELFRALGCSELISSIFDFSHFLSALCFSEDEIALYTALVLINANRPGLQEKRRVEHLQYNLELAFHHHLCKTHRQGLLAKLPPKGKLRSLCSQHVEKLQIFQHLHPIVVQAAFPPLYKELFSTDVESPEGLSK

biological target: Nuclear receptor ROR-gamma (Mus musculus) (UniProt P51450); assay: Secondary confirmation assay for inhibitors of ROR gamma transcriptional activity; details: Drosophila S2 Gal4-RORgamma UAS-luciferase reporter, 20 h; series mostly up to 92.2 µM
How it was run: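 Drosophila Schneider cells stably expressing Gal4-DBD/ROR gamma fusion (metallothionein promoter) with UAS-Photinus luciferase reporter. Compound preincubated 1 hr, then copper sulfate 700 uM final added; 20 hr at ambient temperature, luminescence read.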

Potency, active:
C[C@H]1O[C@@H](O[C@H]2[C@@H](O)C[C@@H](O[C@H]3[C@@H](O)C[C@H](O[C@H]4CC[C@@]5(C)[C@H](CC[C@@H]6[C@@H]5CC[C@]5(C)[C@@H](C7=CC(=O)OC7)CC[C@]65O)C4)O[C@@H]3C)O[C@@H]2C)C[C@H](O)[C@@H]1O 1.44 µM
COc1cc(O)c(C(CC(=O)N2CCCCC2)c2ccc3c(c2)OCO3)c(OC)c1 (centres undefined) 20.4 µM

Potency, inactive:
COc1cc(O)c(C(CC(=O)N2CCOCC2)c2ccc(OC)c(OC)c2)c(OC)c1 (centres undefined)
COc1cc(O)c(C(CC(=O)N2CCCC(C)C2)c2ccccc2OC)c(OC)c1 (centres undefined)

Potency, inconclusive:
COc1cc(O)c(C(CC(=O)N2CCC(Cc3ccccc3)CC2)c2ccc3c(c2)OCO3)c(OC)c1 (centres undefined) 6.45 µM [activator, partial curve, poor fit]
COc1ccccc1CNC(=O)[C@H](C)NC(=O)C1CCN(C(=O)[C@@H]2CCCN2C(=O)OC(C)(C)C)CC1 45.7 µM [inhibitor, single point]
CCN(CC)C(=O)CC(c1ccc2c(c1)OCO2)c1c(O)cc(OC)cc1OC (centres undefined) 45.7 µM [inhibitor, single point]
CN(C)S(=O)(=O)c1ccc(NC(=O)/C=C/c2ccccc2Cl)cc1 0.204 µM [inhibitor, full curve]
Cc1ccc(C(C)C)c(C(CC(=O)N2CCCC(C)C2)c2ccc3c(c2)OCO3)c1O (centres undefined) 72.4 µM [inhibitor, single point]
